The campaign covered roughly 400,000 compounds. About 3,700 (0.93%) were called active. These results got no clear call from the source, so the numbers are uncertain. Calls follow the shape of the dose curve; as a rule, active = well fitted inhibition curve with a large enough effect; inconclusive = small, poorly fitted or top-dose-only effect, or another doubt; inactive = no such curve, though single readings can be large or run the other way.
These compounds were tested against Vitamin D3 receptor (Homo sapiens) (UniProt P11473) (assay: Inhibitors of the vitamin D receptor (VDR): qHTS). Conditions: VDR-SRC2-3 peptide fluorescence polarization, 2 h.
Potency is read from the fitted curve at half-maximal effect.

The chains behind the UniProt entries cited, without tags or fusion partners.
UniProt P11473, whole entry: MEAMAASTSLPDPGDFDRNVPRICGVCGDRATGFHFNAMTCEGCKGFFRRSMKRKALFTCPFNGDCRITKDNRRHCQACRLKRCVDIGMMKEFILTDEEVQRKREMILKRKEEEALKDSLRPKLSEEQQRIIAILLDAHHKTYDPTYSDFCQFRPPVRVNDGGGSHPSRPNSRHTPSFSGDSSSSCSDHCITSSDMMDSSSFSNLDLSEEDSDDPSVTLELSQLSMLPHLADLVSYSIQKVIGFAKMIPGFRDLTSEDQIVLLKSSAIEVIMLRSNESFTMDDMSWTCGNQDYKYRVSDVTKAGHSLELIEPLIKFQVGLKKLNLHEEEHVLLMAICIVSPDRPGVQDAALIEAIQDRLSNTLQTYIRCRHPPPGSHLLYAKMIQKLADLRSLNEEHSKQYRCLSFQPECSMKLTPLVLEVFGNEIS

| Compound | Potency |
| --- | --- |
| COc1ccc(NP(C)(=O)Oc2ccccc2OC)cc1 (stereo unspecified) | inconclusive: 39.8 µM |

Reference: PubChem BioAssay AID504847 (National Center for Advancing Translational Sciences (NCATS), 2011)
